In article doi:10.1101/2021.10.12.464121:
These are yes or no findings as the source states them, for the method shown. Binding seen in cells or lysates may run through a third protein. Some results given as binding are weak or reduced against the parent protein; the word gives no strength. Tags and fused reporters may be left off the sequences shown.

Chains of the proteins cited; added tags and fusions are not shown. Lines headed by an entry give the natural chain unless they say otherwise; changes in a name come on top. Residues count along the entry.
UniProt P06104, whole entry: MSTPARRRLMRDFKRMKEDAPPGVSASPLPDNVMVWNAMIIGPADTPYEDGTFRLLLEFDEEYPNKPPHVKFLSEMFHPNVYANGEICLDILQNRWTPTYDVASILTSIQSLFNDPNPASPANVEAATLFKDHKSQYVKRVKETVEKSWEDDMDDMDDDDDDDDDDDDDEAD
UniProt P06104, 1-150: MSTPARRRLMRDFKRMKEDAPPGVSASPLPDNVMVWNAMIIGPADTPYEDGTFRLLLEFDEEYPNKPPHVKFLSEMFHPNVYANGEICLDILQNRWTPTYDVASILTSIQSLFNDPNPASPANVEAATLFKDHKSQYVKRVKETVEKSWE
UniProt Q07963, whole entry: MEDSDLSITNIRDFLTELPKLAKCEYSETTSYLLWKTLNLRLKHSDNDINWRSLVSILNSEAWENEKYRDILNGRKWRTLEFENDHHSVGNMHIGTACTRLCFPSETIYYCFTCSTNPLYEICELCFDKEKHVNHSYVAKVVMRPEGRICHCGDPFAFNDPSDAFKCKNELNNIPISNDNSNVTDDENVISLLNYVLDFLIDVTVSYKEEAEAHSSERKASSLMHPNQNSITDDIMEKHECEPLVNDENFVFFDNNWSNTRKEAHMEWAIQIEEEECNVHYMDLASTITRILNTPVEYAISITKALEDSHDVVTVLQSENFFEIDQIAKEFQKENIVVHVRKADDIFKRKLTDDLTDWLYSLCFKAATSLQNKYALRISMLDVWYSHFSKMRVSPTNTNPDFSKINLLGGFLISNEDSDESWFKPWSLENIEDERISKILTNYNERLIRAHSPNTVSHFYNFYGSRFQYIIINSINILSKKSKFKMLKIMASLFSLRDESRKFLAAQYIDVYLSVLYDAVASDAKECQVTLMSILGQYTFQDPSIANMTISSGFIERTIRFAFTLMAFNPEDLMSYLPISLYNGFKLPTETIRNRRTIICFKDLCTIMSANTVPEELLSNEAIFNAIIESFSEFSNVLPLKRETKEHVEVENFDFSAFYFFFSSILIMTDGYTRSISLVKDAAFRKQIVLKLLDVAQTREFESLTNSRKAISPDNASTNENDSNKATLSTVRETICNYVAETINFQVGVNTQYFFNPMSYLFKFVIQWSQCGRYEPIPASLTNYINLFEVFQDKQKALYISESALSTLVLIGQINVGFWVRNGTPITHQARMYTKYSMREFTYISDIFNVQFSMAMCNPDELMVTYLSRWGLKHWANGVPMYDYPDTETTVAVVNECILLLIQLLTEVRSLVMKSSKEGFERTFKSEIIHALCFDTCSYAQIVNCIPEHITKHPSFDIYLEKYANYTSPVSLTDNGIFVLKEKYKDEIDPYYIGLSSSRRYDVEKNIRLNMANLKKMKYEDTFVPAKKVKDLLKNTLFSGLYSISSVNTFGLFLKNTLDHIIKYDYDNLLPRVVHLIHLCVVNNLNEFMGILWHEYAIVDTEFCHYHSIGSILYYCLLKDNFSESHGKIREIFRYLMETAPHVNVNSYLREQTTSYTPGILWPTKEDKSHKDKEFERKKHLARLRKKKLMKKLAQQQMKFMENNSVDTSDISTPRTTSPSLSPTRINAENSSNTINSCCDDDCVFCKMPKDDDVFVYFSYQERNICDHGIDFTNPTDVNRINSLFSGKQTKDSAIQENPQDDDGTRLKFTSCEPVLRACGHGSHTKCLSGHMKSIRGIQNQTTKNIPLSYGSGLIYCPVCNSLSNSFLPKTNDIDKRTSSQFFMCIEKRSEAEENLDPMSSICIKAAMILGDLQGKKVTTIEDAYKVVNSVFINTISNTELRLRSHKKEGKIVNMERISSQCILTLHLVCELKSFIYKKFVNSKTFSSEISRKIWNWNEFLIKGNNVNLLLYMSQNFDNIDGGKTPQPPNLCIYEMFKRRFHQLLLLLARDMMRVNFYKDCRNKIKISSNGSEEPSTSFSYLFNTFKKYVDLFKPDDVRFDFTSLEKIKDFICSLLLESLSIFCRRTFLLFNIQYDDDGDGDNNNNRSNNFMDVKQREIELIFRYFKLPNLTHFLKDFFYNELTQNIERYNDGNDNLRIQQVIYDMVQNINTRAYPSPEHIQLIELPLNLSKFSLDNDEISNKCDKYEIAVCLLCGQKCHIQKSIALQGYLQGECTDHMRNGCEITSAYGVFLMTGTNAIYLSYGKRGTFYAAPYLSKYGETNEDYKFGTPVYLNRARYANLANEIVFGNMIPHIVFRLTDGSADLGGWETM

Tests used:
[1] = biological target: Flag epitope-tagged rad6-A126F (Saccharomyces cerevisiae) (UniProt P06104); assay: co-IP
[2] = biological target: Flag epitope-tagged wild-type Rad6 (Saccharomyces cerevisiae) (UniProt P06104); assay: co-IP
[3] = biological target: Flag epitope-tagged rad6-A126T (Saccharomyces cerevisiae) (UniProt P06104); assay: co-IP
[4] = biological target: His6-rad6-A126T (amino acids 1-150) (Saccharomyces cerevisiae) (UniProt P06104); assay: pull-down
[5] = biological target: His6-rad6-A126F (amino acids 1-150) (Saccharomyces cerevisiae) (UniProt P06104); assay: pull-down
[6] = biological target: His6-Rad6 (amino acids 1-150) (Saccharomyces cerevisiae) (UniProt P06104); assay: pull-down

binding [1]	binding [2]	binding [3]	binding [4]	binding [5]	binding [6]	Molecule
binds	binds	binds	–	–	–	6HA-tagged Ubr2 (from UniProt Q07963 1-1872) (enzyme)
–	–	–	binds	binds	binds	GST-tagged Rad18 Rad6-binding region (amino acids 301-487) (domain or fragment, UniProt P10862 301-487) RQNMIKRYNHYEMLWNSNFCDSLEPVDEAELKRQLLSWDVSHNKTPQNSSNKGGISKLMIMKSNGKSSSYRKLLENFKNDKFNRKGWMVMFRKDFARLIREAKMKIKTGSSDSSGSVGHSNDGDGVEKVQSDQGTEDQQMEKDQDTVINEDRVAGERNLPNEDSTDADLSRELMDLNEYSKDPPGNN
binds	binds	binds	–	–	–	Bre1 (enzyme, UniProt Q07457 1-700) MTAEPATKKIKLELSDPSEPLTQSDVIAFQKEALFRCINRRRVDFEALRKQYELSRRECIDVSRKLANIMALIVTLARFIETFCTDANEKQLCREIAQGDETLIVQRSDSFMKLLTKYGKPNTTDSNTNSNASDHIQELTTELKNLRKSKEELFYENSQLTEEISALKEYYTNIIRKYDRDESFTIKRVFKEDKTDAVKELREDEKESNENNIKSGNKDSSAINGDNTSKKSEKGDELVQAEDERKEDAENEKLELDLKFSDLRAEINSLSSTIKDLENIRRENEEELIKTRSEVSNLKKQQIAAADQDPDFKSYDHESLLAKIQHLTEQNAELSEINSSFLSKFQVLAKEKEIYTKKVREEFQKSLDSLVEMNSSLEKDVVRIRTARDDLLSKIAILEAEKSKTEVLSDLQHAIDILKEQWTKIDQRSNDTKSSSTQDALIKEIQDLEKGFRELSDLTHKKYSEIINHESVISKLTVEKTKADQKYFAAMRSKDSILIEIKTLSKSLSKSNELILQLKDSDRLLQQKIGNLHKQLDLSQNNERRLIDSSKTETLKIIDLNNTSTKLKRSLEKLQEESNKSIADMTHLETKLNDTEIELKHFKQKASHLESKCEKLHDTLFRGNNKNKGSSDEALVEELANFRTLVYCSLCSKNWKNMAIKTCGHVFCENCCKERLAARMRKCPTCNKAFSSNDLLTVHL
binds	binds	binds	–	–	–	9Myc-tagged Rad18 (enzyme, UniProt P10862 1-487) MDHQITTASDFTTTSIPSLYQLDTLLRCHICKDFLKVPVLTPCGHTFCSLCIRTHLNNQPNCPLCLFEFRESLLRSEFLVSEIIQSYTSLRSSLLDALRIPKPTPVPENEEVPGPENSSWIELISESESDSVNAADDDLQIVATSERKLAKRSMTDILPLSSKPSKRNFAMFRSERIKKKSKPNEQMAQCPICQQFYPLKALEKTHLDECLTLQSLGKKPKISTTFPTESNPHNKSSSRFKVRTPEVDKSSCGETSHVDKYLNSMMSAEHQRLPKINFTSMTQSQIKQKLSSLGLSTNGTRQNMIKRYNHYEMLWNSNFCDSLEPVDEAELKRQLLSWDVSHNKTPQNSSNKGGISKLMIMKSNGKSSSYRKLLENFKNDKFNRKGWMVMFRKDFARLIREAKMKIKTGSSDSSGSVGHSNDGDGVEKVQSDQGTEDQQMEKDQDTVINEDRVAGERNLPNEDSTDADLSRELMDLNEYSKDPPGNN
–	–	–	binds	binds	binds	Bre1 Rad6-binding region (amino acids 1-214) (domain or fragment, UniProt Q07457 1-214) MTAEPATKKIKLELSDPSEPLTQSDVIAFQKEALFRCINRRRVDFEALRKQYELSRRECIDVSRKLANIMALIVTLARFIETFCTDANEKQLCREIAQGDETLIVQRSDSFMKLLTKYGKPNTTDSNTNSNASDHIQELTTELKNLRKSKEELFYENSQLTEEISALKEYYTNIIRKYDRDESFTIKRVFKEDKTDAVKELREDEKESNENNIK
